Data reported in patent US20250327050A1.
No constants are given. Whether binding was seen depends on the method and setting. In cells and extracts the contact can be indirect. Some entries that bind do so weakly or less than the wild type.

The chains behind the UniProt entries cited, without tags or fusion partners.
UniProt Q14004: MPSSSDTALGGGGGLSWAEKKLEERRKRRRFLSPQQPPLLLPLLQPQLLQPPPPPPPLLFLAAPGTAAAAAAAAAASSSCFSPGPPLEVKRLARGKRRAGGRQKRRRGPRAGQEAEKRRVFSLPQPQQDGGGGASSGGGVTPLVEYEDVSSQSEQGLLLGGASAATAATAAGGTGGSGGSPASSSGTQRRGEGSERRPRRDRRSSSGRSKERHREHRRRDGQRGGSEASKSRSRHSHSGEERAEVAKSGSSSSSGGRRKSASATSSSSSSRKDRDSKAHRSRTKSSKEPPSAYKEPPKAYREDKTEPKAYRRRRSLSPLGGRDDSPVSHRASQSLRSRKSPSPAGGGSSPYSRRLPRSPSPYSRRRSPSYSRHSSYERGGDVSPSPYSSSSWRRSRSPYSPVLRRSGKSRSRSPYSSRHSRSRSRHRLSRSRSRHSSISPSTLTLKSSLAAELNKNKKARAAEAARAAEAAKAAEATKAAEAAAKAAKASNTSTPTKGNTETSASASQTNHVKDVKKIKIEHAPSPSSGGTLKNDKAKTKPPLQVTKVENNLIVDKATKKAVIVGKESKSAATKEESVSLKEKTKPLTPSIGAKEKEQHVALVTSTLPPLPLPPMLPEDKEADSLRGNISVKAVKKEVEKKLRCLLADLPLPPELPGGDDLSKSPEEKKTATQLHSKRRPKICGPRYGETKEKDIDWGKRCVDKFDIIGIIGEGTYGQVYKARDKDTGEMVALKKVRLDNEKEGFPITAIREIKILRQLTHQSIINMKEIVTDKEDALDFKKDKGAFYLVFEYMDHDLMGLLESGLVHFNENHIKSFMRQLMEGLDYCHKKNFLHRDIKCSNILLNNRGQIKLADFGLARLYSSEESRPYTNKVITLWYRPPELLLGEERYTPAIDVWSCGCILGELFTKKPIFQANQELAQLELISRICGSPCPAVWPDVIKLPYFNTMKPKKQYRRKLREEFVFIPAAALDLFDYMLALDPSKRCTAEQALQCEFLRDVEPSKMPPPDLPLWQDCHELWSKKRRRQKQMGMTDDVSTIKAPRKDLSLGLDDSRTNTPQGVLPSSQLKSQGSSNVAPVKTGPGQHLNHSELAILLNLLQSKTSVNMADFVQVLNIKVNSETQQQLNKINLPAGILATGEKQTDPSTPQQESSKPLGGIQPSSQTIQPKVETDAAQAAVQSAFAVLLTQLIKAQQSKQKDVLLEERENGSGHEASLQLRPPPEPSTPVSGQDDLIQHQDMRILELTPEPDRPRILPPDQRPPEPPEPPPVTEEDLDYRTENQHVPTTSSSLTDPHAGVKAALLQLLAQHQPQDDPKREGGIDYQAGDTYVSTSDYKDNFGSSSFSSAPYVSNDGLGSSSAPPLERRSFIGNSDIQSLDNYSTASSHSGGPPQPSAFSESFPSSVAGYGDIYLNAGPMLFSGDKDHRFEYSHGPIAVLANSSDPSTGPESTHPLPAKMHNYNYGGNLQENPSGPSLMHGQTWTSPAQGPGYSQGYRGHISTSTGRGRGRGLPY

Assays:
[1] = biological target: T1, ZC3H14 (endogenous, found in the CDK13 IP-MS from human melanoma cells) (human) (UniProt Q6PJT7); assay: IP-MS of CDK13 from human melanoma cells
T1 sequence: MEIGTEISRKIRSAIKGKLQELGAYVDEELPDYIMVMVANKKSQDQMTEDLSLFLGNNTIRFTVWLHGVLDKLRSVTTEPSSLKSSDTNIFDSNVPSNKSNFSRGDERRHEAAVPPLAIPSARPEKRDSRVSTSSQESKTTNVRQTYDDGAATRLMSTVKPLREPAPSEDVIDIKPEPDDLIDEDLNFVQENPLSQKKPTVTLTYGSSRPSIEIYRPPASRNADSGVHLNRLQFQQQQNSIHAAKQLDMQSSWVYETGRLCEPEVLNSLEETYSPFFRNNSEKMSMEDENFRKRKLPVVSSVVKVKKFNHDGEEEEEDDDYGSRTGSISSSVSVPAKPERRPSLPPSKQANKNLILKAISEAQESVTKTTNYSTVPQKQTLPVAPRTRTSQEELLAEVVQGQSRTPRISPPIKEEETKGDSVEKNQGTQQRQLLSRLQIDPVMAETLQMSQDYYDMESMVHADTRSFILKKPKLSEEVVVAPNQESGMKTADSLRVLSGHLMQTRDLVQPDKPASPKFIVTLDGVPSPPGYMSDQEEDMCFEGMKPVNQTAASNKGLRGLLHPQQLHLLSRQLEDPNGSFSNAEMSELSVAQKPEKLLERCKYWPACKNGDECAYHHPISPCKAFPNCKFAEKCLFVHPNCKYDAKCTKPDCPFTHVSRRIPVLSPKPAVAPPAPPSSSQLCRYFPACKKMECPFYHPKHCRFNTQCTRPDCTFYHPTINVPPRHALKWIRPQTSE

PABPN1 (human) = biological target: T2, PABPN1 (human) (UniProt Q86U42); assay: IP-MS of CDK13 from human melanoma cells
T2 sequence (looked up): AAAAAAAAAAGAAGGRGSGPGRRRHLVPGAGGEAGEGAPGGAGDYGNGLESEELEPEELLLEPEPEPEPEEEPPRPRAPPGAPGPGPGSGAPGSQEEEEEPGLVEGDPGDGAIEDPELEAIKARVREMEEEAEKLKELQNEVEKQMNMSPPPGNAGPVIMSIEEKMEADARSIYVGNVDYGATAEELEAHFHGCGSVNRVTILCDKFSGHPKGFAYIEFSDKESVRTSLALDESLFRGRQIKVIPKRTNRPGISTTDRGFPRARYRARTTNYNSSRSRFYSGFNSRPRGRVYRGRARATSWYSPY

[2] = biological target: T1, ZC3H14 (endogenous, found in the CDK13 IP-MS from human melanoma cells) (human); assay: IP-MS of CDK13^WT from human melanoma cells

Measured: binding

CDK13^WT (bait of the CDK13 IP-MS) (from UniProt Q14004 1-1512) (enzyme)
binds: all assays above
